This note sets out measurements from the supplement of paper PMC6411743.

The chains behind the UniProt entries cited, without tags or fusion partners. Where a name states a change or a piece, a line headed by the entry shows the natural chain unless it says otherwise.
UniProt Q9UHJ6: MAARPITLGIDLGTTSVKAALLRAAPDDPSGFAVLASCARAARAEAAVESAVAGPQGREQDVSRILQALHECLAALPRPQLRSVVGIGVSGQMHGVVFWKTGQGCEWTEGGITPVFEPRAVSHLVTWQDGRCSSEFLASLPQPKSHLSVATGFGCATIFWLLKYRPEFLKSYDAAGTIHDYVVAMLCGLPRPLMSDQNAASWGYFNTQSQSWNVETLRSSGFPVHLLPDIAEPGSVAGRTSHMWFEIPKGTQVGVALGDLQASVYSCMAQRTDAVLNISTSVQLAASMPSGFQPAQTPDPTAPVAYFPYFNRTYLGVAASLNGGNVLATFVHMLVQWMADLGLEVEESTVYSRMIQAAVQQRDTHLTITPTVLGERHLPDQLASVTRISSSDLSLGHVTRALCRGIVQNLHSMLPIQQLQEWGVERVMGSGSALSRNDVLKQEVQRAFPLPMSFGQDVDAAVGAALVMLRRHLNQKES
UniProt Q6UXD5: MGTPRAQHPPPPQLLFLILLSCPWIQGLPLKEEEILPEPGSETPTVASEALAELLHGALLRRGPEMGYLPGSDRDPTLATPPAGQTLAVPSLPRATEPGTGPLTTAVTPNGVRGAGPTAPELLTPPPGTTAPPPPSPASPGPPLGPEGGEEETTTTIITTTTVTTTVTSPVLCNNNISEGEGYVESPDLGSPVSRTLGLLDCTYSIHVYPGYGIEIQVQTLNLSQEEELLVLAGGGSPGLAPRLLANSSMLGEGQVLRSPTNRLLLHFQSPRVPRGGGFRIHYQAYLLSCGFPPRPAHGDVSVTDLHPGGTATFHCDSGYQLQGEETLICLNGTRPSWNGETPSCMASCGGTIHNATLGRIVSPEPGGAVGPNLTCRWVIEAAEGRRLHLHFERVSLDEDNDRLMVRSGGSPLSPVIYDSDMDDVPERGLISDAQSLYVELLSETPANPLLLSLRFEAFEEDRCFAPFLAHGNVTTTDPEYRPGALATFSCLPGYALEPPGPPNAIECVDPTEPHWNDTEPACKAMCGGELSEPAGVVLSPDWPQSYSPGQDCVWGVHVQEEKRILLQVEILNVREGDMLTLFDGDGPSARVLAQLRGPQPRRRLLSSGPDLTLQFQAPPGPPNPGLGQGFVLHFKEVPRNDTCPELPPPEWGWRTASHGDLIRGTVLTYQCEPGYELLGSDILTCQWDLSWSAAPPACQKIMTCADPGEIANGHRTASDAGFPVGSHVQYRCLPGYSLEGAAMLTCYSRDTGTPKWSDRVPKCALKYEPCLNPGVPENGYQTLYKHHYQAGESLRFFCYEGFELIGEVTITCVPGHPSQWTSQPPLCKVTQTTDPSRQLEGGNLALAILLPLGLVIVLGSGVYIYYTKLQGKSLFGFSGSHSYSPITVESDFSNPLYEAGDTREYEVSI
UniProt Q14114: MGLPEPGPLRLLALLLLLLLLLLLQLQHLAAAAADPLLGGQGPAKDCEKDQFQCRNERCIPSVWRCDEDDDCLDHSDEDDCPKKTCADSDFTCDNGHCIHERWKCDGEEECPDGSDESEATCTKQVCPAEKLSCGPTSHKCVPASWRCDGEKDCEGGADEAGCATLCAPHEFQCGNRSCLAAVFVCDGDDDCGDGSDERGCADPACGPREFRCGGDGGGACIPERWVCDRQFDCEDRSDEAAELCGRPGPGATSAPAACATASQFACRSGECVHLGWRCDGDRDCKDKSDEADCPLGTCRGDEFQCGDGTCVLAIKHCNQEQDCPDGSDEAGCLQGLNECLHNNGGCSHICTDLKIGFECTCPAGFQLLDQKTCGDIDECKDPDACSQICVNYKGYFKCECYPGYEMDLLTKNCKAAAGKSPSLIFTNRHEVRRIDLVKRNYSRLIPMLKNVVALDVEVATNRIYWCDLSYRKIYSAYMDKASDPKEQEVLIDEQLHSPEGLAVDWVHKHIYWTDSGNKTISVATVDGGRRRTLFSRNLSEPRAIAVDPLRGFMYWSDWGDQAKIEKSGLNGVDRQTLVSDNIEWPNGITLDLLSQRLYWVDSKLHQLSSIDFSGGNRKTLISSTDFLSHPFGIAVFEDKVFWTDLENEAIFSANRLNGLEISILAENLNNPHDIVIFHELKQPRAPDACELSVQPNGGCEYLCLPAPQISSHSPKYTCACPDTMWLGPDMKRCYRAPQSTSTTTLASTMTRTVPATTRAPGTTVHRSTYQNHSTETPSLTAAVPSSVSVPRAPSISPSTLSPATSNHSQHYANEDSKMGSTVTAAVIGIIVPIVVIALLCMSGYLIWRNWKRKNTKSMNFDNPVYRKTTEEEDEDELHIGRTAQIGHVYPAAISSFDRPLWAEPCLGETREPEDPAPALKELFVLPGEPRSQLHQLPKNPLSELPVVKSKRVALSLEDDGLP
UniProt Q16881, whole entry: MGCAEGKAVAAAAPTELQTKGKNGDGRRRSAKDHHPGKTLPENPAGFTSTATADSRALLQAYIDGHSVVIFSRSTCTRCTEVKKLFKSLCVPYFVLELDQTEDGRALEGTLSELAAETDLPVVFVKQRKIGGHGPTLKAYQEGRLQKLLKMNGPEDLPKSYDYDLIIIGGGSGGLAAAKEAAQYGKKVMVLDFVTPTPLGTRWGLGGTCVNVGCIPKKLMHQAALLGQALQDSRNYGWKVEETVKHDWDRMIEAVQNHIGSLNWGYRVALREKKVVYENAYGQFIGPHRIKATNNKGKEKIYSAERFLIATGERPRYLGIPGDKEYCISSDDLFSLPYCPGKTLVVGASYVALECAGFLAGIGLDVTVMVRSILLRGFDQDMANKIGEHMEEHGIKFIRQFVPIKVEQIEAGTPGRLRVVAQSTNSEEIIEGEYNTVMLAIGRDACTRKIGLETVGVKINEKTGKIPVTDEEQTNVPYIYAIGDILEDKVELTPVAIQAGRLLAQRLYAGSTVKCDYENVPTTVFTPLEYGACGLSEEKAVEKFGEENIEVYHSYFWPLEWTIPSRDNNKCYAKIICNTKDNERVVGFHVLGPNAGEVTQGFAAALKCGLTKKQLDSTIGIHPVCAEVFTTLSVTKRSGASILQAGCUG
UniProt Q9NV06: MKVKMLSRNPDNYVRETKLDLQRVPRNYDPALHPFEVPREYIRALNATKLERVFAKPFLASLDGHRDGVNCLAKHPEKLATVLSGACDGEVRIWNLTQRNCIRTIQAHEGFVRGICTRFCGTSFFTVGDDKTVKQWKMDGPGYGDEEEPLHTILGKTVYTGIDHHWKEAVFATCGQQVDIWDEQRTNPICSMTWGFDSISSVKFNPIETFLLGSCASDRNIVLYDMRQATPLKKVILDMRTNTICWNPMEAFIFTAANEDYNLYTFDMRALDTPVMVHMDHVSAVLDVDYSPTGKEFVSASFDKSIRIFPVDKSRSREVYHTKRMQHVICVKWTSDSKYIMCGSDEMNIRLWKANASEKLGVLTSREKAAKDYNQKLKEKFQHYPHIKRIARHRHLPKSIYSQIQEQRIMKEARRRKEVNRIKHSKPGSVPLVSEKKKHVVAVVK
UniProt Q13555: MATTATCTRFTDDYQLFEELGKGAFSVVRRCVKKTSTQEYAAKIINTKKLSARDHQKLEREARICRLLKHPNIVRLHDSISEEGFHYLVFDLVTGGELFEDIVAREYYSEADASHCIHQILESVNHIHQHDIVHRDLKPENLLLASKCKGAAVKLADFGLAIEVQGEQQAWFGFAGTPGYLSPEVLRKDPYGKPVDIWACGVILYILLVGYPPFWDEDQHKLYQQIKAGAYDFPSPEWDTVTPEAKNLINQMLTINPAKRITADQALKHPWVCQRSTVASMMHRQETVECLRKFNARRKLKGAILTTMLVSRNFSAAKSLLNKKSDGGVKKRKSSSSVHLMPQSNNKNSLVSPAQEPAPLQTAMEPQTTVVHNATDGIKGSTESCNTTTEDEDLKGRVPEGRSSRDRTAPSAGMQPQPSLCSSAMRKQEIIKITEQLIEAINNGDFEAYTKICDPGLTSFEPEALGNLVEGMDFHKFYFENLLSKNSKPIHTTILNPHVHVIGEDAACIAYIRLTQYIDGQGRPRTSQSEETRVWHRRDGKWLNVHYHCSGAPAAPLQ
UniProt Q9Y388: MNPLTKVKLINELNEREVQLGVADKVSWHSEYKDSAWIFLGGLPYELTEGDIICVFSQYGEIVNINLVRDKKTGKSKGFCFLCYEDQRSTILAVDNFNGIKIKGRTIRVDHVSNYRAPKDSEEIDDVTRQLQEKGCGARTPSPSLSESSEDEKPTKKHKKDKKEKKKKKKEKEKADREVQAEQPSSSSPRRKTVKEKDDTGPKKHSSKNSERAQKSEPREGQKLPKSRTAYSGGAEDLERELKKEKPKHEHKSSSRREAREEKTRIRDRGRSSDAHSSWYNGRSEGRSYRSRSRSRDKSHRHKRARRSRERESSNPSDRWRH
UniProt P09326: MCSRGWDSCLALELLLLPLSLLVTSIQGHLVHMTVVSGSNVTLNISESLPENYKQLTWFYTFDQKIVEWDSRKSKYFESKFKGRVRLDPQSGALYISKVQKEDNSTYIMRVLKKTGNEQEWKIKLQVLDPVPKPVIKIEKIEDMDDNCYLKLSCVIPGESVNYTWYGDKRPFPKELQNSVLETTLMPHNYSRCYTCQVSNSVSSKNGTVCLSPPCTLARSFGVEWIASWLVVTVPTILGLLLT
UniProt P09211: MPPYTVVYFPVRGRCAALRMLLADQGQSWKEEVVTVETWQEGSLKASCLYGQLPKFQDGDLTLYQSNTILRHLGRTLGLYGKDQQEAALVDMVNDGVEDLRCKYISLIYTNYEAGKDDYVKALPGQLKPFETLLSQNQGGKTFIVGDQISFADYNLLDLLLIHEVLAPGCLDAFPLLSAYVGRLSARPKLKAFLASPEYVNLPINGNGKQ
UniProt O00303, whole entry: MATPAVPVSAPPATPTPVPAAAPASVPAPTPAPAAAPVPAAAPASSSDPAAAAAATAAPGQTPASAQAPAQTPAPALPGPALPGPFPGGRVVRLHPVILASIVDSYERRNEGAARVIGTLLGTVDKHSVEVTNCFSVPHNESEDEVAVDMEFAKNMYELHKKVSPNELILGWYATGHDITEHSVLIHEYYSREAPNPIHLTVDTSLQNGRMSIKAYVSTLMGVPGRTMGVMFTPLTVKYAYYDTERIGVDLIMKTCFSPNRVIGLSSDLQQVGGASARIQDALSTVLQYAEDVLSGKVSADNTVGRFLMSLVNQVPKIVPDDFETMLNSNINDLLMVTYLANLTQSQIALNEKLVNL
UniProt Q5T1M5: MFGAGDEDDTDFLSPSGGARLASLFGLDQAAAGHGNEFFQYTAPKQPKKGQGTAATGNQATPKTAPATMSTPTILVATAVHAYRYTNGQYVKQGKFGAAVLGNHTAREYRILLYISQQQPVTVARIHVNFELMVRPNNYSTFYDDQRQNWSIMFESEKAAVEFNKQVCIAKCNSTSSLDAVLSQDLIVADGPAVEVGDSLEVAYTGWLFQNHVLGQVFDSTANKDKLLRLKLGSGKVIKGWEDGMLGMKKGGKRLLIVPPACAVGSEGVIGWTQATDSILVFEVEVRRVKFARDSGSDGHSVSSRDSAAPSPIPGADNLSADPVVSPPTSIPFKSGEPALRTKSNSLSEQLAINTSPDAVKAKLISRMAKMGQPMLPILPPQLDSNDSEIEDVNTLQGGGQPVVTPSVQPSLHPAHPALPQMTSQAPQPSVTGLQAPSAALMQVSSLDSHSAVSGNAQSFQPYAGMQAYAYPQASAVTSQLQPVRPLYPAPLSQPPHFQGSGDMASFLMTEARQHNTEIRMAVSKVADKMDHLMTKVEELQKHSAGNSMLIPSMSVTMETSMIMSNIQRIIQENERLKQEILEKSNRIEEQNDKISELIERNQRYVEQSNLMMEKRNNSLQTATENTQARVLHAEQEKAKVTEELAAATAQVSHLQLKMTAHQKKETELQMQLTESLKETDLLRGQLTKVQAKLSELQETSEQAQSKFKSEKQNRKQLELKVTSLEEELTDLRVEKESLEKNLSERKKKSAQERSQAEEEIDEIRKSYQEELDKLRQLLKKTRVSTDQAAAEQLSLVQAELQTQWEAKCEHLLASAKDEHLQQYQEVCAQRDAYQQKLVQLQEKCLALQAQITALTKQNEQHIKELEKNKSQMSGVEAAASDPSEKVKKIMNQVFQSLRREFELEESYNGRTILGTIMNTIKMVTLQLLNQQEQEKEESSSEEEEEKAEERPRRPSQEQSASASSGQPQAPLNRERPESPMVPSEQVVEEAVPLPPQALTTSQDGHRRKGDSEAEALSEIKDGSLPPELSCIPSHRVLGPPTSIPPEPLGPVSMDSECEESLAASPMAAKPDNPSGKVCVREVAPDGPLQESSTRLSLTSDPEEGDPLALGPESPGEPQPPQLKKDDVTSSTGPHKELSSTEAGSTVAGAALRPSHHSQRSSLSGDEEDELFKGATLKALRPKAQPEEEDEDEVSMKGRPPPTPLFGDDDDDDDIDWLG
UniProt O43708: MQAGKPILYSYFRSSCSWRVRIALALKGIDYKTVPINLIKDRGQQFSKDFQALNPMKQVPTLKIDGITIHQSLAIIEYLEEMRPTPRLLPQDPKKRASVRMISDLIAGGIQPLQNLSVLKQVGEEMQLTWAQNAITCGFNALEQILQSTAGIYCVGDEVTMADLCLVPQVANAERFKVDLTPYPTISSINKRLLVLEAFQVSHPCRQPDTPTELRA

± gives the standard deviation of the averaged measurements. The entries are a selection whose mix differs from that of the whole data set. Most values lie at the level of the controls, where differences are scatter.

Compound in this assay: Nc1ncnc2c1ncn2[C@@H]1O[C@H](COP(=O)(O)OP(=O)(O)OP(=O)(O)O)[C@@H](O)[C@H]1O [adenosine triphosphate]
Nature of the assay: NP40-soluble protein abundance relative to vehicle (solubility fold change) (ratio); higher = more soluble protein in presence of ATP. The method, boiled down: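 Each value is a fold change relative to the detergent-processed vehicle, calculated per replicate from vsn-normalised intensities. Jurkat crude lysate received eight concentrations (0.1 to 10 mM) for 10 min at room temperature and 3 min at 37 °C, then was solubilised in 0.8% NP40 with benzonase (60 min, 4 °C). The ultracentrifuged supernatant was TMT-labelled and run by LC-MS/MS in three independent experiments.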

Consider A0A0D9SEI0|Q9P0P8 (UniProt Q9P0P8), for which the NP40-soluble protein abundance runs as follows: (concentration: 0.1mM) 0.977 ± 0.074; (concentration: 0.5mM) 0.91 ± 0.14.

As to A0A087X2I1|P62333 (UniProt P62333), the NP40-soluble protein abundance (concentration: 0.1mM) is 0.995 ± 0.063 and the NP40-soluble protein abundance (concentration: 0.5mM) was determined as 0.92 ± 0.022.

As for A0A0B4J2A0|Q9UHJ6 (UniProt Q9UHJ6), the NP40-soluble protein abundance (concentration: 0.1mM) is 0.974 ± 0.061 and the NP40-soluble protein abundance (concentration: 0.5mM) is 0.989 ± 0.07.

Take “A0A0C4DG78|M0R3C6 and related entries (UniProt Q8TBC5)”: the NP40-soluble protein abundance by setting is: (concentration: 0.1mM) 0.886 ± 0.056; (concentration: 0.5mM) 0.849 ± 0.046.

For “A0A087WYL5|Q6UXD5-3|Q6UXD5-5|Q6UXD5-6 (UniProt Q6UXD5)”, the NP40-soluble protein abundance reads like this: (concentration: 0.1mM) 0.953 ± 0.13; (concentration: 0.5mM) 0.915 ± 0.064.

For A0A0C4DFV0|Q9H469 (UniProt Q9H469), the NP40-soluble protein abundance (concentration: 0.1mM) worked out at 1.01 ± 0.024 and the NP40-soluble protein abundance (concentration: 0.5mM) was found to be 0.978 ± 0.11.

As to “A0A0C4DH01|Q9NVU0 and related entries (UniProt Q9NVU0)”, the NP40-soluble protein abundance is 1.01 ± 0.086 (concentration: 0.1mM) and 1 ± 0.14 (concentration: 0.5mM).

On to “A0A0A0MQU0|Q9BV38 and related entries (UniProt Q9BV38)”, for which the NP40-soluble protein abundance reads like this: (concentration: 0.1mM) 1.04 ± 0.14; (concentration: 0.5mM) 0.974 ± 0.024.

As to “A0A0A0MSK6|Q13017 and related entries (UniProt Q13017)”, the NP40-soluble protein abundance came out at 1.11 ± 0.034 (concentration: 0.1mM) and 1.09 ± 0.087 (concentration: 0.5mM).

“A0A0C4DH16|B8ZZS0 and related entries (UniProt Q9NYM9)”: the NP40-soluble protein abundance runs as follows: (concentration: 0.1mM) 0.857 ± 0.094; (concentration: 0.5mM) 0.834 ± 0.18.

On to A0A087WUQ6|P07203 (UniProt P07203), for which the NP40-soluble protein abundance was 0.991 ± 0.062 (concentration: 0.1mM) and 0.988 ± 0.025 (concentration: 0.5mM).

As for “A0A0B4J1W0|F5GY88 and related entries (UniProt O75448)”, the NP40-soluble protein abundance runs as follows: (concentration: 0.1mM) 1.04 ± 0.053; (concentration: 0.5mM) 1.08 ± 0.073.

With “A0A087WW84|Q14114-2|Q14114 and related entries (UniProt Q14114)”, the NP40-soluble protein abundance came to 1.03 ± 0.035 (concentration: 0.1mM) and 0.995 ± 0.045 (concentration: 0.5mM).

Turning to “A0A087WSW9|A0A087WSY9|Q16881 and related entries (UniProt Q16881)”, the NP40-soluble protein abundance came out at 1.04 ± 0.071 (concentration: 0.1mM) and 1.03 ± 0.05 (concentration: 0.5mM).

Turning to A0A087WT20|Q9NV06 (UniProt Q9NV06), the NP40-soluble protein abundance came out at 1.12 ± 0.026 (concentration: 0.1mM) and 1.1 ± 0.056 (concentration: 0.5mM).

With “A0A0C4DG44|O43464 and related entries (UniProt O43464)”, the NP40-soluble protein abundance runs as follows: (concentration: 0.1mM) 1.02 ± 0.063; (concentration: 0.5mM) 0.992 ± 0.034.

With “A0A0D9SGJ6|J3KQV8 and related entries (UniProt O43426)”, the NP40-soluble protein abundance was 1.03 ± 0.015 (concentration: 0.1mM) and 1.03 ± 0.033 (concentration: 0.5mM).

As for A0A087X256|Q2M389 (UniProt Q2M389), the NP40-soluble protein abundance was determined as 1.08 ± 0.11 (concentration: 0.1mM) and 1.07 ± 0.06 (concentration: 0.5mM).

In the case of A0A0A0MTR2|Q8N543 (UniProt Q8N543), the NP40-soluble protein abundance (concentration: 0.1mM) was determined as 1.04 ± 0.066 and the NP40-soluble protein abundance (concentration: 0.5mM) turned out to be 1.05 ± 0.086.

Take “A0A087WW65|O75027 and related entries (UniProt O75027)”: the NP40-soluble protein abundance turned out to be 1.11 ± 0.11 (concentration: 0.1mM) and 1.05 ± 0.084 (concentration: 0.5mM).

With “A0A0A0MS52|Q13555-2|Q13555-8|Q13555-9 (UniProt Q13555)”, the NP40-soluble protein abundance (concentration: 0.1mM) amounted to 0.989 ± 0.043 and the NP40-soluble protein abundance (concentration: 0.5mM) came to 1.03 ± 0.062.

A0A087WW39|P55198 (UniProt P55198): the NP40-soluble protein abundance was found to be 1.03 ± 0.072 (concentration: 0.1mM) and 1.07 ± 0.023 (concentration: 0.5mM).

In the case of A0A087WUI1|Q9Y388 (UniProt Q9Y388), the NP40-soluble protein abundance (concentration: 0.1mM) worked out at 1.15 ± 0.034 and the NP40-soluble protein abundance (concentration: 0.5mM) came out at 1.15 ± 0.06.

Regarding “A0A0C4DGV5|O95218 and related entries (UniProt O95218)”, the NP40-soluble protein abundance is 0.968 ± 0.019 (concentration: 0.1mM) and 0.945 ± 0.026 (concentration: 0.5mM).

Take “A0A087X1S6|B5MDU3 and related entries (UniProt Q96JA3)”: the NP40-soluble protein abundance worked out at 1.06 ± 0.18 (concentration: 0.1mM) and 1.02 ± 0.17 (concentration: 0.5mM).

For A0A087X1S7|P09326 (UniProt P09326), the NP40-soluble protein abundance by setting is: (concentration: 0.1mM) 0.929 ± 0.029; (concentration: 0.5mM) 0.937 ± 0.074.

For the target A0A087WXR7|Q5TBB1 (UniProt Q5TBB1), the NP40-soluble protein abundance by setting is: (concentration: 0.1mM) 0.981 ± 0.068; (concentration: 0.5mM) 0.972 ± 0.046.

For A0A087X1Z3|Q9UL46 (UniProt Q9UL46), the NP40-soluble protein abundance reads like this: (concentration: 0.1mM) 0.875 ± 0.1; (concentration: 0.5mM) 0.846 ± 0.14.

Regarding “A0A087WV66|P46013 and related entries (UniProt P46013)”, the NP40-soluble protein abundance stood at 0.994 ± 0.014 (concentration: 0.1mM) and 1.01 ± 0.039 (concentration: 0.5mM).

In the case of A0A087X243|P09211 (UniProt P09211), the NP40-soluble protein abundance runs as follows: (concentration: 0.1mM) 1.03 ± 0.059; (concentration: 0.5mM) 1.04 ± 0.048.

For A0A087WTV6|Q96C36 (UniProt Q96C36), the NP40-soluble protein abundance runs as follows: (concentration: 0.1mM) 0.961 ± 0.019; (concentration: 0.5mM) 0.967 ± 0.034.

Turning to “A0A087WYL7|G3V4A5 and related entries (UniProt O75586)”, the NP40-soluble protein abundance is, setting by setting: (concentration: 0.1mM) 0.956 ± 0.026; (concentration: 0.5mM) 0.995 ± 0.03.

Take “A0A0A0MQT4|Q5QP82 and related entries (UniProt Q5QP82)”: the NP40-soluble protein abundance came out at 1 ± 0.051 (concentration: 0.1mM) and 1.03 ± 0.11 (concentration: 0.5mM).

Turning to “A0A0A0MRB5|Q8WXG6 and related entries (UniProt Q8WXG6)”, the NP40-soluble protein abundance (concentration: 0.1mM) came out at 0.965 ± 0.028 and the NP40-soluble protein abundance (concentration: 0.5mM) was determined as 0.981 ± 0.053.

Consider A0A0D9SEZ9|O00303 (UniProt O00303), for which the NP40-soluble protein abundance (concentration: 0.1mM) came to 0.953 ± 0.037 and the NP40-soluble protein abundance (concentration: 0.5mM) came to 0.949 ± 0.063.

Take “A0A087X1I8|Q7Z3E5 and related entries (UniProt Q7Z3E5)”: the NP40-soluble protein abundance came out at 1.01 ± 0.049 (concentration: 0.1mM) and 1.01 ± 0.058 (concentration: 0.5mM).

Consider “A0A087WU31|A0A0A0MTB7|P51790 and related entries (UniProt P51790)”, for which the NP40-soluble protein abundance by setting is: (concentration: 0.1mM) 0.962 ± 0.076; (concentration: 0.5mM) 0.983 ± 0.027.

Regarding “A0A0D9SFK2|Q92614 and related entries (UniProt Q92614)”, the NP40-soluble protein abundance (concentration: 0.1mM) is 0.977 ± 0.037 and the NP40-soluble protein abundance (concentration: 0.5mM) was 0.999 ± 0.072.

Turning to A0A0B4J1W3|Q9BXJ9 (UniProt Q9BXJ9), the NP40-soluble protein abundance was 1.03 ± 0.056 (concentration: 0.1mM) and 1.06 ± 0.038 (concentration: 0.5mM).

For “A0A0A0MTG1|Q5ST30 and related entries (UniProt Q5ST30)”, the NP40-soluble protein abundance turned out to be 1.02 ± 0.022 (concentration: 0.1mM) and 1.03 ± 0.033 (concentration: 0.5mM).

As to “A0A0A0MSS3|Q5T6P1 and related entries (UniProt Q8ND83)”, the NP40-soluble protein abundance (concentration: 0.1mM) turned out to be 0.971 ± 0.031 and the NP40-soluble protein abundance (concentration: 0.5mM) was 0.948 ± 0.048.

Regarding “A0A087X0W8|Q04206 and related entries (UniProt Q04206)”, the NP40-soluble protein abundance is 1.04 ± 0.06 (concentration: 0.1mM) and 1.009 ± 0.0023 (concentration: 0.5mM).

With “A0A0B4J1V9|Q9NRZ9 and related entries (UniProt Q9NRZ9)”, the NP40-soluble protein abundance runs as follows: (concentration: 0.1mM) 1.06 ± 0.03; (concentration: 0.5mM) 1.21 ± 0.032.

For “A0A0A0MRJ0|Q5VT25 and related entries (UniProt Q5VT25)”, the NP40-soluble protein abundance was determined as 1.08 ± 0.029 (concentration: 0.1mM) and 1.24 ± 0.14 (concentration: 0.5mM).

On to A0A0B4J2A4|P42765 (UniProt P42765), for which the NP40-soluble protein abundance was found to be 1.01 ± 0.043 (concentration: 0.1mM) and 1.04 ± 0.052 (concentration: 0.5mM).

Take “A0A0A0MRY0|Q8WUA7 and related entries (UniProt Q8WUA7)”: the NP40-soluble protein abundance (concentration: 0.1mM) amounted to 1.09 ± 0.1 and the NP40-soluble protein abundance (concentration: 0.5mM) stood at 1.07 ± 0.082.

With “A0A0A0MSG2|J3KNW4 and related entries (UniProt Q14192)”, the NP40-soluble protein abundance is 1.07 ± 0.056 (concentration: 0.1mM) and 1.07 ± 0.04 (concentration: 0.5mM).

For “A0A087WYK8|B1AKJ5 and related entries (UniProt O43847)”, the NP40-soluble protein abundance is, setting by setting: (concentration: 0.1mM) 1.06 ± 0.057; (concentration: 0.5mM) 1.06 ± 0.06.

Regarding A0A087WUL7|Q96F24 (UniProt Q96F24), the NP40-soluble protein abundance (concentration: 0.1mM) turned out to be 0.988 ± 0.031 and the NP40-soluble protein abundance (concentration: 0.5mM) came out at 1.02 ± 0.04.

Consider A0A0A0MT60|Q5T1M5 (UniProt Q5T1M5), for which the NP40-soluble protein abundance runs as follows: (concentration: 0.1mM) 0.9822 ± 0.0098; (concentration: 0.5mM) 0.992 ± 0.057.

Take “A0A0D9SF54|A0A0D9SGF6|Q13813 and related entries (UniProt Q13813)”: the NP40-soluble protein abundance was 0.853 ± 0.035 (concentration: 0.1mM) and 0.853 ± 0.065 (concentration: 0.5mM).

On to A0A0A0MTS7|Q8WZ42-12 (UniProt Q8WZ42), for which the NP40-soluble protein abundance (concentration: 0.1mM) was found to be 0.964 ± 0.038 and the NP40-soluble protein abundance (concentration: 0.5mM) was found to be 0.962 ± 0.053.

As for “A0A0C4DFM0|G3V4T6 and related entries (UniProt O43708)”, the NP40-soluble protein abundance is, setting by setting: (concentration: 0.1mM) 0.977 ± 0.041; (concentration: 0.5mM) 0.932 ± 0.035.

As to A0A0C4DGA6|Q14527 (UniProt Q14527), the NP40-soluble protein abundance (concentration: 0.1mM) amounted to 1.05 ± 0.036 and the NP40-soluble protein abundance (concentration: 0.5mM) was determined as 1.08 ± 0.055.

Take “A0A096LP59|P46100 and related entries (UniProt P46100)”: the NP40-soluble protein abundance was 0.968 ± 0.015 (concentration: 0.1mM) and 0.967 ± 0.036 (concentration: 0.5mM).

Regarding “A0A087WXZ7|K7EIX2 and related entries (UniProt Q6AI08)”, the NP40-soluble protein abundance runs as follows: (concentration: 0.1mM) 1.02 ± 0.029; (concentration: 0.5mM) 1.01 ± 0.066.
